No constants are given. Whether binding was seen depends on the method and setting. Binding calls can cover weak binding; strength is not graded here.
Tests used:
[1] = molecular target: trkC (antigen of the immunoblot of Table 3) (Homo sapiens (Human)); assay: immunoblot, non-reduced (NR) trkC
[2] = molecular target: trkC (antigen of the immunoblot of Table 3) (Homo sapiens (Human)); assay: immunoblot, reduced (Red.) trkC

| binding [1] | binding [2] | Binder |
| --- | --- | --- |
| binds | binds | anti-trkC agonist monoclonal antibody 2349 (antibody, human IgG4, V domains shown) VH: QVQLQESGPGLVKPSQTLSLTCTVSGGSISSGYYYWSWIRQHPGKGLEWIGYIYYSGSTYYNPSLKSRLTISVDTSKNQFSLKLSSVTAADTAVYYCARERIAAAGTDYYYNGLAVWGQGTTVTVSS VL: GIVLTQSPGTLSLSPGERATFSCRASQSGSSTYLAWYQQKPGQAPRLLIYGASSRATGIPDRFSGSGSGTDFTLTISRLEPEDFAVYYCQQYGRSPPITFGQGTRLEIKR |
| binds | binds | anti-trkC agonist monoclonal antibody 2253 (antibody, mouse IgG1, V domains shown) VH: QVQLQQSGAELMQPGASVKISCKSTGYTFSNFWIEWVKQRPGHGLEWIGEILPGSDNTNYNEKFKGKATFTADTSSNTAYMQLSSLTSEDSAVYYCARKNRNYYGNYVVWGAGTTLTVSS VL: QIVLTQSPAIMSASPGEKVTITCSASSSVSYMYWFQQKPGTSPKLWIYSTSNLASGVPARFSGSGSGTSYSLTISRMEAEDAATYYCQQRSSYPLTFGAGTKLELKR |

— patent US20070036794A1
